We go through three molecules from paper PMC12607013.

Holding throughout (experiment): co-IP; HEK293T cells transfected with the indicated plasmids, 48 to 72 h; clarified lysates incubated overnight at 4 °C with anti-FLAG M2-agarose or anti-HA-agarose beads; Western blot
(In general: A western blot detects proteins with antibodies after separation by electrophoresis.)

For test [1], the target named is T1, FLAG-tagged full-length OTUD4 H148Y (tumor-associated variant) (human) (UniProt Q01804).
T1 sequence: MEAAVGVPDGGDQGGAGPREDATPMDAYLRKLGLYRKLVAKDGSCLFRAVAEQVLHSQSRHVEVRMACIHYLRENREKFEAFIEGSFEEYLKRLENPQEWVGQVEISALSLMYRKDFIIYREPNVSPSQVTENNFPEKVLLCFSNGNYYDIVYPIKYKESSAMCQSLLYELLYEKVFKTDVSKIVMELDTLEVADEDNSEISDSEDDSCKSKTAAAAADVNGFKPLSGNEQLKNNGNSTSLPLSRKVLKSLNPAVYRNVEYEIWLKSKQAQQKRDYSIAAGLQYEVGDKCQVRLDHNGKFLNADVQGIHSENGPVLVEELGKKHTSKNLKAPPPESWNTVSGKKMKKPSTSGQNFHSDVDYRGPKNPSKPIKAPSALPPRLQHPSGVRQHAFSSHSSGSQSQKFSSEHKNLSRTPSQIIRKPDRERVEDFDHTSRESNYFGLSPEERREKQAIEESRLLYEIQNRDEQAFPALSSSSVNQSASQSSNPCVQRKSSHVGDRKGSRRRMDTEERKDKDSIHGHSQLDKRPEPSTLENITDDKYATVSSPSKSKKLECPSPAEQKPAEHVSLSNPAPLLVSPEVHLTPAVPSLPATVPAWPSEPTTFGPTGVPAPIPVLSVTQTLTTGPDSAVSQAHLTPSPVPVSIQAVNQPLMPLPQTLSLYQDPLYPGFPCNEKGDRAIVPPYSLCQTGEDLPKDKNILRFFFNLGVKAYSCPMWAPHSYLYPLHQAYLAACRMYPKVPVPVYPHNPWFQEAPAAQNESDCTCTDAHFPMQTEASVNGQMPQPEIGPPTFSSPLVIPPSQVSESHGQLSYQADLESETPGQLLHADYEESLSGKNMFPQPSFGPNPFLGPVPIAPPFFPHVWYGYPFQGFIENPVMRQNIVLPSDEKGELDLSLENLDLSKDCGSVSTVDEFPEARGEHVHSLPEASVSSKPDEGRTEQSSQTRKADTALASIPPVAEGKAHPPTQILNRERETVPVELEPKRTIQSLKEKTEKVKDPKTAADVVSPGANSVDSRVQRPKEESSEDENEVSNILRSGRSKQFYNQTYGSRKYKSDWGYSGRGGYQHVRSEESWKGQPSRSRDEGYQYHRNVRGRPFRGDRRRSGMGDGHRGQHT

For test [2], the target named is T2, FLAG-tagged full-length OTUD4 (ovarian tumor family deubiquitinase 4), WT (human) (UniProt Q01804).
T2 sequence: T1 sequence with Y148H

The target in another test is T3, HA-TAK1 (UniProt O43318).
T3 sequence: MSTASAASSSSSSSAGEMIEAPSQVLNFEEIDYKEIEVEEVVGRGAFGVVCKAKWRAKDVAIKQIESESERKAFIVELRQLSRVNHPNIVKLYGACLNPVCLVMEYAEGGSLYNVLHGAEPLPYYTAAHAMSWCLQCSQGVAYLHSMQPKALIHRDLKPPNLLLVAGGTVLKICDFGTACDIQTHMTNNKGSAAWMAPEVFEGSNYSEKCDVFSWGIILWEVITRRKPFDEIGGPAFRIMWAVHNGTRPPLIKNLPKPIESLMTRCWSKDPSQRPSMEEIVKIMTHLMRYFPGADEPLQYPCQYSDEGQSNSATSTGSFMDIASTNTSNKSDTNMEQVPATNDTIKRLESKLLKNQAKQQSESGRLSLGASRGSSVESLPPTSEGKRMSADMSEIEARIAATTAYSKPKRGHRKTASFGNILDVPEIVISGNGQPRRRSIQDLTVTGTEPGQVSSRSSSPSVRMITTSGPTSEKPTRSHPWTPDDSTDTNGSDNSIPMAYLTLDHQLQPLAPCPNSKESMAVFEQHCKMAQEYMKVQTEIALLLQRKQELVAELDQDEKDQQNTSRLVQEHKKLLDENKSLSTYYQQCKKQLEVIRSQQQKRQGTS

In another test the target is T4, CYLD (UniProt Q9NQC7).
T4 sequence: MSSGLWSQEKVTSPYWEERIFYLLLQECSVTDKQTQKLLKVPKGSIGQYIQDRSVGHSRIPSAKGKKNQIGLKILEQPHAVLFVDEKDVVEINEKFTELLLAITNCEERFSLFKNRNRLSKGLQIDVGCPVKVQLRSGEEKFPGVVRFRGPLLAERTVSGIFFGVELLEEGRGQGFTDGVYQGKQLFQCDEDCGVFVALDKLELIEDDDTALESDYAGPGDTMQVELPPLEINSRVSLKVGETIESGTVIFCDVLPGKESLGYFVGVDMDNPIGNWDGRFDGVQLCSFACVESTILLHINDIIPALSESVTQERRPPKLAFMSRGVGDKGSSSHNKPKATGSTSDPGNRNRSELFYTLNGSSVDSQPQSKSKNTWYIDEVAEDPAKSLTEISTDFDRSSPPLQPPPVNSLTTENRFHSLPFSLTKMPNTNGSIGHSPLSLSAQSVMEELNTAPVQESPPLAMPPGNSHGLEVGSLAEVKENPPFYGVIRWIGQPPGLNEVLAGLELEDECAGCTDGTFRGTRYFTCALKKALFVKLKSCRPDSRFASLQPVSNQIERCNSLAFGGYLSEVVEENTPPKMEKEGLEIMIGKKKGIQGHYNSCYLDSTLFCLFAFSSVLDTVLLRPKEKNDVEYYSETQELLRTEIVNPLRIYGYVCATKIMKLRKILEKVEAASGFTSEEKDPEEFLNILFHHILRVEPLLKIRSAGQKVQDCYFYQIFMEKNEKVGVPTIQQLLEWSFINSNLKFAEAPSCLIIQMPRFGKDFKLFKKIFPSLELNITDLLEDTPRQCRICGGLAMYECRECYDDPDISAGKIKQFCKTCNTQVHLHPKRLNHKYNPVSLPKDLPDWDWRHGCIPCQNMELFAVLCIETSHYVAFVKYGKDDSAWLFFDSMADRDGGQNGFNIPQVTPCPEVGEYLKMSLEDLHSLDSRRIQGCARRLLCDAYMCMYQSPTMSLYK

Substitutions are numbered along the chain they refer to. No constants are given. Whether binding was seen depends on the method and setting. In cells and extracts the contact can be indirect. Some entries that bind do so weakly or less than the wild type. For some assays here: Sequences can lack the tags named with a protein.

B1: endogenous TAB1 in HEK293T cells (protein, UniProt Q15750 1-504)
chain: MAAQRRSLLQSEQQPSWTDDLPLCHLSGVGSASNRSYSADGKGTESHPPEDSWLKFRSENNCFLYGVFNGYDGNRVTNFVAQRLSAELLLGQLNAEHAEADVRRVLLQAFDVVERSFLESIDDALAEKASLQSQLPEGVPQHQLPPQYQKILERLKTLEREISGGAMAVVAVLLNNKLYVANVGTNRALLCKSTVDGLQVTQLNVDHTTENEDELFRLSQLGLDAGKIKQVGIICGQESTRRIGDYKVKYGYTDIDLLSAAKSKPIIAEPEIHGAQPLDGVTGFLVLMSEGLYKALEAAHGPGQANQEIAAMIDTEFAKQTSLDAVAQAVVDRVKRIHSDTFASGGERARFCPRHEDMTLLVRNFGYPLGEMSQPTPSPAPAAGGRVYPVSVPYSSAQSTSKTSVTLSLVMPSQGQMVNGAHSASTLDEATPTLTNQSPTLTLQSTNTHTQSSSSSSDGGLFRSRPAHSLPPGEDGRVEPYVDFAEFYRLWSVDHGEQSVVTAP
With B1, the binding entry (in test [1]; in test [2]; with HA-TAK1) was “binds” in each case.

B2: endogenous TAK1 (transforming growth factor β–activated kinase 1) in HEK293T cells (protein, UniProt O43318 1-606)
chain: T3 sequence
B2: the binding entry (with CYLD; in test [2]) was “binds” in each case.

B3: endogenous TAB3 in HEK293T cells (protein, UniProt Q8N5C8 1-712)
chain: MAQSSPQLDIQVLHDLRQRFPEIPEGVVSQCMLQNNNNLEACCRALSQESSKYLYMEYHSPDDNRMNRNRLLHINLGIHSPSSYHPGDGAQLNGGRTLVHSSSDGHIDPQHAAGKQLICLVQEPHSAPAVVAATPNYNPFFMNEQNRSAATPPSQPPQQPSSMQTGMNPSAMQGPSPPPPPPSYMHIPRYSTNPITVTVSQNLPSGQTVPRALQILPQIPSNLYGSPGSIYIRQTSQSSSGRQTPQSTPWQSSPQGPVPHYSQRPLPVYPHQQNYQPSQYSPKQQQIPQSAYHSPPPSQCPSPFSSPQHQVQPSQLGHIFMPPSPSTTPPHPYQQGPPSYQKQGSHSVAYLPYTASSLSKGSMKKIEITVEPSQRPGTAINRSPSPISNQPSPRNQHSLYTATTPPSSSPSRGISSQPKPPFSVNPVYITYTQPTGPSCTPSPSPRVIPNPTTVFKITVGRATTENLLNLVDQEERSAAPEPIQPISVIPGSGGEKGSHKYQRSSSSGSDDYAYTQALLLHQRARMERLAKQLKLEKEELERLKSEVNGMEHDLMQRRLRRVSCTTAIPTPEEMTRLRSMNRQLQINVDCTLKEVDLLQSRGNFDPKAMNNFYDNIEPGPVVPPKPSKKDSSDPCTIERKARRISVTSKVQADIHDTQAAAADEHRTGSTQSPRTQPRDEDYEGAPWNCDSCTFLNHPALNRCEQCEMPRYT
As for B3, the binding result (in test [1]; in test [2]; with HA-TAK1) was “binds” in each case.
